{"source": "patent US6479544B1", "about": "“Therapeutic combinations of fatty acids” (Laxdale Limited, priority 2001, dated 2002)", "key": {"[1]": {"type": "in vivo, human", "conditions": "+ means a rise, − a fall", "method": "In these patients, and also in a further series of patients, the levels of DGLA, AA, EPA and DHA were measured in human red cells before starting treatment and after 12 weeks. As expected there was a dose-related rise in EPA which was greater the greater the dose. It was also expected that there would be a progressive decline in AA, the larger the EPA dose, the greater the fall in AA."}, "[2]": {"system": "coronary vascular disease", "conditions": "high doses; cited from earlier work"}, "[3]": {"system": "inflammatory bowel disease", "conditions": "high doses; cited from earlier work"}}, "note": "Where two headings read alike, the source gives them in different places. At least one compound was matched to its structure with a doubt left.", "data": [{"compound": "CC/C=C\\C/C=C\\C/C=C\\C/C=C\\C/C=C\\CCCC(=O)O", "note": "[EPA, eicosapentaenoic acid]", "values": [{"measurement": "Change from baseline to 12 weeks in red cell concentration of AA", "setting": "[1]; 1 g/d", "result": "small rise in AA"}, {"measurement": "Change from baseline to 12 weeks in red cell concentration of AA", "setting": "[1]; 2 g/d", "result": "large rise"}, {"measurement": "Change from baseline to 12 weeks in red cell concentration of AA", "setting": "[1]; 4 g/d", "result": "expected fall in AA"}, {"measurement": "Beneficial effects in patients undergoing angioplasty for coronary vascular disease", "setting": "[2]", "result": "completely failed to exert beneficial effects"}, {"measurement": "Beneficial effects in patients with inflammatory bowel disease", "setting": "[3]", "result": "completely failed to exert beneficial effects"}]}]}
